Measurements published in article PMC6436350.
Results are given in words; binding and its absence hold for the method and conditions named. Binding seen in cells or lysates may run through a third protein. Some entries that bind do so weakly or less than the wild type.

The chains behind the UniProt entries cited, without tags or fusion partners.
UniProt Q181G7: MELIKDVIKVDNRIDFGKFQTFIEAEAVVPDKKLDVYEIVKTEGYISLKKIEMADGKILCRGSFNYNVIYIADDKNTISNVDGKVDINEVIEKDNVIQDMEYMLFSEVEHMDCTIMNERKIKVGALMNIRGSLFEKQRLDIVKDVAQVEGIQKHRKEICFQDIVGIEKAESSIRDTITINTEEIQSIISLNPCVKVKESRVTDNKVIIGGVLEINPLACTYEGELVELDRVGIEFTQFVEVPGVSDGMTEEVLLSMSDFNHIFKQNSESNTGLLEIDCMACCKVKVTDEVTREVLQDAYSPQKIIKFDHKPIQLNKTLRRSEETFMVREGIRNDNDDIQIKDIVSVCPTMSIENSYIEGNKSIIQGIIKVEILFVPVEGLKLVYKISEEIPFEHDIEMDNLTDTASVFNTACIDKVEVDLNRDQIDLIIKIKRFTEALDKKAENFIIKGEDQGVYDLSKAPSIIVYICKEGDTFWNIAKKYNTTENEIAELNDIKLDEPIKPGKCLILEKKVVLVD
UniProt Q182W3: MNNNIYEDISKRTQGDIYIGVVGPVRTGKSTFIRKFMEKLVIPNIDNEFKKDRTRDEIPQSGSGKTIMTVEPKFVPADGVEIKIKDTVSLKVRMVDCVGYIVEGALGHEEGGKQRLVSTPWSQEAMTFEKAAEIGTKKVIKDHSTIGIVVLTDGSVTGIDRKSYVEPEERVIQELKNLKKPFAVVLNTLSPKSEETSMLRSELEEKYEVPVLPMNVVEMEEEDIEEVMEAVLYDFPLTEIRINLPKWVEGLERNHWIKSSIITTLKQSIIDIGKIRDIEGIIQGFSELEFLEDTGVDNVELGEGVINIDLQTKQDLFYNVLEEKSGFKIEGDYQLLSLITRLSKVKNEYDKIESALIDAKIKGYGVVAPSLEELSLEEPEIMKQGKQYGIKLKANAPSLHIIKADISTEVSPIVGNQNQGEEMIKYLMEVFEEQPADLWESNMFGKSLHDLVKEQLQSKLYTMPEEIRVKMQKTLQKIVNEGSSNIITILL

Molecular target: FLAG-tagged wild-type SipL (Clostridioides difficile) (UniProt Q181G7)
Experiment: co-IP; FLAG-tagged SipL variants immunoprecipitated from cleared lysates of C. difficile sporulating for 24 h with anti-FLAG magnetic beads (Dynabead protein G), 2 h at room temperature; 50 mM Tris pH 7.5, 150 mM NaCl; eluted with FLAG peptide; SpoIVA detected by Western blot

“C. difficile SpoIVA (from UniProt Q182W3 1-491)” was tested, and the binding was “binds”.
